Out of some 1,400 compounds screened, fewer than 10 were called active.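 Rule for the calls: active = fluorescence-lowering compounds whose fitted half-maximal concentration is at or below ten times the highest valid dose tested; inconclusive = flat curve at 30 to 70% inhibition, or poor fit; inactive = the rest.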 The list shows a part of the results.
Molecular target: Histone deacetylase 3 (Homo sapiens) (UniProt O15379)
Test: HDAC3 deacetylase inhibitors, dose response, counter-screen for JMJD2C/GASC1 demethylase inhibitor project, biochemical, fluorescence, cherry-picked samples (AID 485318);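 note: enzyme preincubated with compound before substrate and trypsin were added; 0% = neutral control wells and -100% = SAHA positive control wells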
Conditions: recombinant HDAC3, fluorogenic peptide/trypsin coupled; at 12 µM (top of the series)

By UniProt entry, the sequences of proteins in these tests, tags left out. Where a name states a change or a piece, a line headed by the entry shows the natural chain unless it says otherwise.
UniProt O15379: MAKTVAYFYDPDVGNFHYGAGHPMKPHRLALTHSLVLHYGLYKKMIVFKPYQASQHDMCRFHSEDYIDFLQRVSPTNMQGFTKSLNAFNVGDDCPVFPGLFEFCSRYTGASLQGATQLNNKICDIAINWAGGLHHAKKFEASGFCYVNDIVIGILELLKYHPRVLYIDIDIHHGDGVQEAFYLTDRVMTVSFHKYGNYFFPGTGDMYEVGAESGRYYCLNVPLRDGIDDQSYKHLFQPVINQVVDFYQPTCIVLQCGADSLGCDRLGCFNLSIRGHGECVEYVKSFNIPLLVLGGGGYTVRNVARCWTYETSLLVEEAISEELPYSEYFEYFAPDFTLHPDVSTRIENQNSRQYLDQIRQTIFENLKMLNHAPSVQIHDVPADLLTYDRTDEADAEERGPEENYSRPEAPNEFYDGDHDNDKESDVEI

Row | SMILES | activity change, negative = inhibition
1 | O=C(Nc1cccc2ccccc12)OC1C=CS(=O)(=O)C1 (stereo unspecified) | inactive: -0.311%
2 | C[C@]12c3[nH]c4ccccc4c3CCN1C(=O)C(CC(=O)NCCN1CCOCC1)C[C@@H]2C(=O)N1CCCCC1 (stereo partly specified) | inactive: 0.21%
3 | COc1cccc(/C=C/C(=O)NCCc2ccc(OC)c(OC)c2)c1 | inactive: 0.228%
4 | Cc1ccc2c(c1)C(=O)N1[C@H]3c4cc(Cl)ccc4OC[C@@H]3[C@H](c3ccccc3)[C@]1(C)C(=O)N2 | inactive: 0.114%
5 | CCS(=O)(=O)Nc1ccc(C2=NN(C(=O)c3ccco3)C(c3ccc(C)cc3)C2)cc1 (stereo unspecified) | inactive: -0.125%
6 | CCCCCCn1c(=O)[nH]c2nc3cc(N)ccc3nc2c1=O | inactive: -0.461%
7 | Cc1ccc(CSc2ncnc3onc(C)c23)cc1 | inactive: -0.218%
8 | C[C@@H]1CCCCCCCCC(=O)OCCN(C(=O)OC(C)(C)C)[C@H](C)CCCCCCCCC(=O)OCCN(C(=O)OC(C)(C)C)[C@H](C)CCCCCCCCC(=O)OCCN1C(=O)OC(C)(C)C | inactive: 0.233%
9 | COc1ccc2sc(-c3ccc(S(C)(=O)=O)cc3)c(C#CCO)c2c1 | inactive: -0.136%
10 | COc1ccc(OC)c(N(CC(=O)NCc2ccncc2)S(C)(=O)=O)c1 | inactive: -0.393%
11 | CC(C)=CC(=O)O[C@@H]1Cc2c(ccc3ccc(=O)oc23)OC1(C)C | inactive: 0.656%
12 | O=C1CC2C(=O)NCCN2C(=NC(=O)c2ccccc2)N1 (stereo unspecified) | inactive: -1.08%
13 | C[C@H]1CN([C@@H](C)CO)C(=O)c2cccc(NC(=O)C3CC3)c2O[C@H]1CN(C)Cc1ccncc1 | inactive: 0.314%
14 | CSCCC(NS(=O)(=O)c1ccc(Cl)cc1)C(=O)O (stereo unspecified) | inactive: 0.172%
15 | Cc1cc(=O)[nH]c(SCC(=O)Nc2ncc(S(=O)(=O)c3ccc([N+](=O)[O-])cc3)s2)n1 | inactive: 0.676%
16 | CC1CCCCC12NC(=O)N(CC(=O)NCCc1ccccn1)C2=O (stereo unspecified) | inactive: -0.204%
17 | COc1ccc(/C=C/C(=O)NC(=S)NNC(=O)Cc2cccs2)cc1OC | inactive: -0.579%
18 | Cn1c2c(c(=O)n(C)c1=O)CN(CCCN1CCOCC1)CN2 | inactive: 0.55%
19 | CCOC(=O)c1[nH]c(C)c(/C(O)=C2\C(=O)C(=O)N(CCCN(CC)CC)C2c2cccnc2)c1C (stereo unspecified) | inactive: 0.131%

Row | SMILES | activity change, negative = inhibition
20 | Cc1cccc(NC(=S)N(CCN2CCOCC2)Cc2cc3cc4c(cc3[nH]c2=O)OCO4)c1 | inactive: -0.159%
21 | Cc1ccc(N2CC(C(=O)Nc3ccc(N(C)C)cc3)CC2=O)cc1C (stereo unspecified) | inactive: 0.359%
22 | C=CCn1cnc2scc(-c3ccc(C)cc3)c2c1=O | inactive: 0.314%
23 | NNC(=O)c1nn(-c2ccc(Cl)cc2)ccc1=O | inactive: 0.679%
24 | Nc1ccc(S(=O)(=O)NC2(C(F)(F)F)NC(=O)N(c3ccc(F)cc3)C2=O)cc1 (stereo unspecified) | inactive: -0.564%
25 | Cc1cccc(C)c1NC(=S)NN(Cc1ccccc1)c1ccccc1 | inactive: 0.43%
26 | CCOc1ccc(NC(=O)CSc2nnc(-c3ccccc3)n2N)cc1 | inactive: 0.611%
27 | CCCc1nnc(SCC(=O)N2CCCC2)n1CC1CCCO1 (stereo unspecified) | inactive: 1.01%
28 | Cc1cccc(C)c1NC1=NC(=S)N(c2ccc(C(=O)O)cc2)C12CCCCC2 | inactive: 0.476%
29 | C=CCOC(=O)C1=C(C)NC(=O)NC1c1ccc(OC(=O)c2ccco2)c(OC)c1 (stereo unspecified) | inactive: 0.285%
30 | COc1ccccc1Nc1ncnc2ccccc12 | inactive: 0.689%
31 | Cc1ccsc1C(=O)OCc1nc2ccccc2c(=O)[nH]1 | inactive: -0.356%
32 | COc1ccc(Nc2cccc(Cl)c2)c(C(=O)O)c1 | inactive: -0.486%
33 | CCCn1nnnc1SCC(=O)NCc1ccc2c(c1)OCO2 | inactive: 0.24%
34 | COC(=O)c1ccc(CSc2nnc(N)s2)o1 | inactive: 0.282%
35 | COc1ccccc1N=Cc1c(C)c(C#N)c2[nH]c3ccccc3n2c1=O | inactive: -0.155%
36 | C[C@H]1CN([C@@H](C)CO)C(=O)c2cc(NC(=O)C3CCCCC3)ccc2O[C@H]1CN(C)S(=O)(=O)c1ccccc1 | inactive: -0.847%
37 | C=CCn1c(-c2cccc3ccccc23)n[nH]c1=S | inactive: 0.581%
38 | O=C(CNC(=O)c1ccccc1O)N/N=C/c1cc(Br)ccc1OC(=O)/C=C/c1ccco1 | inactive: 0.283%

Row | SMILES | activity change, negative = inhibition
39 | C/C(=N\Nc1nc(C(=O)O)cs1)c1ccccc1 | inactive: -0.586%
40 | COc1cc2nc(-c3ccccc3C)oc(=O)c2cc1OC | inactive: -0.144%
41 | COc1ccc2c(C)nc(Nc3nc(C)cc(C)n3)nc2c1 | inactive: -0.277%
42 | Cc1ccc(N(CC(=O)N2CCn3c2nc2ccccc23)S(=O)(=O)c2c(C)n[nH]c2C)cc1 | inactive: 0.776%
43 | CCOC(=O)C1=C(CSc2nc(-c3ccncc3)ccc2C#N)OC(N)=C(C#N)C1c1cccnc1 (stereo unspecified) | inactive: 0.789%
44 | O=S(=O)(Nc1ccccc1)c1ccc(NS(=O)(=O)c2c(F)cccc2F)cc1 | inactive: -0.142%
45 | O=C1CCCc2c1nc(-c1ccccc1)n2O | inactive: 0.0393%
46 | COC(=O)c1ccc(/C=C/c2c(-c3ccc(OC)cc3)sc3ccccc23)cc1 | inactive: -0.0926%
47 | CCOC(=O)N1CCN(C(=S)NC(C)(C)C)CC1 | inactive: -0.408%
48 | CN(C)C(=O)c1cccc(-c2csc(N3CCC(C(N)=O)CC3)n2)c1 | inactive: 0.16%
49 | COC(=O)c1nn(Cc2ccccc2)c(=O)c2ccccc12 | inactive: 0.629%
50 | CCc1nc(NCc2ccc3c(c2)OCO3)c2oc3ccccc3c2n1 | inactive: 0.522%
51 | C/C=C(\C)c1nnc(NC(=O)C(C)C)s1 | inactive: 0.318%
52 | CN(C)c1ccc(C2Nc3ccccc3C(=O)N2CCN2CCNC2=O)cc1 (stereo unspecified) | inactive: -0.413%
53 | CC12CN3CC(C)(CN(C1)C3c1ccc3ccccc3c1O)C2=O (stereo unspecified) | inactive: 0.769%
54 | CN1CCN(C(=O)CN(c2ccccc2)S(=O)(=O)N(C)C)CC1 | inactive: 0.189%
55 | CN1C(=O)/C(=C2\SC(=S)N(C(CCC(=O)O)C(=O)O)C2=O)c2ccccc21 (stereo unspecified) | inactive: -1.81%
56 | CCOC(=O)N1CCN(S(=O)(=O)c2ccc3c(c2)CCN3C(=O)C2CC2)CC1 | inactive: -0.468%

Look-ups from the entries so far.
activity change, negative = inhibition, CN1C(=O)/C(=C2\SC(=S)N(C(CCC(=O)O)C(=O)O)C2=O)c2ccccc21 (stereo unspecified) reads inactive: -1.81%
activity change, negative = inhibition, CCc1nc(NCc2ccc3c(c2)OCO3)c2oc3ccccc3c2n1 reads inactive: 0.522%
activity change, negative = inhibition, Cc1ccc(N(CC(=O)N2CCn3c2nc2ccccc23)S(=O)(=O)c2c(C)n[nH]c2C)cc1 reads inactive: 0.776%

— PubChem BioAssay AID485318 (Broad Institute, 2010)
